According to patent US20180148718:
The exact form of at least one protein or probe is not confirmed. Where cells or extracts were used, other partners may take part. For part of these data: Where a protein sequence is shown, tags need not be part of it.

Sequences of proteins named here, by UniProt entry; tags and fusion partners are left off. A change or cut given only in a name is not applied to a line headed by its entry. Residues count along the entry.
UniProt P12956, 2-609: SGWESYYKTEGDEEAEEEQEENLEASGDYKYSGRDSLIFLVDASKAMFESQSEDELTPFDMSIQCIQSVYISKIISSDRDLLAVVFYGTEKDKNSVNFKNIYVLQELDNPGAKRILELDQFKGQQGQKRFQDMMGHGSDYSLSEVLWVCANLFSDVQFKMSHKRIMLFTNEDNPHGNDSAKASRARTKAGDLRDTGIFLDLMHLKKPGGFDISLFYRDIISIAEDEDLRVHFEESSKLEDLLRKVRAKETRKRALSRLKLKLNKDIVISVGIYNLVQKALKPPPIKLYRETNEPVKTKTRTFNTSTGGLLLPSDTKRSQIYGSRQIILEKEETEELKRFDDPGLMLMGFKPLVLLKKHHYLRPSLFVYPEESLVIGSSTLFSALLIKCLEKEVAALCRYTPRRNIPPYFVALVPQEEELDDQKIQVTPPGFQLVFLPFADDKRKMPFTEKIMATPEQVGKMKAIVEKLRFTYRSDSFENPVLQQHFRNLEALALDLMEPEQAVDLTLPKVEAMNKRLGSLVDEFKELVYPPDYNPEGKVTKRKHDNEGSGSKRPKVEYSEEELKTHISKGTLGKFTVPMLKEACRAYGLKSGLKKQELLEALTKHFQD
UniProt P13010, 2-732: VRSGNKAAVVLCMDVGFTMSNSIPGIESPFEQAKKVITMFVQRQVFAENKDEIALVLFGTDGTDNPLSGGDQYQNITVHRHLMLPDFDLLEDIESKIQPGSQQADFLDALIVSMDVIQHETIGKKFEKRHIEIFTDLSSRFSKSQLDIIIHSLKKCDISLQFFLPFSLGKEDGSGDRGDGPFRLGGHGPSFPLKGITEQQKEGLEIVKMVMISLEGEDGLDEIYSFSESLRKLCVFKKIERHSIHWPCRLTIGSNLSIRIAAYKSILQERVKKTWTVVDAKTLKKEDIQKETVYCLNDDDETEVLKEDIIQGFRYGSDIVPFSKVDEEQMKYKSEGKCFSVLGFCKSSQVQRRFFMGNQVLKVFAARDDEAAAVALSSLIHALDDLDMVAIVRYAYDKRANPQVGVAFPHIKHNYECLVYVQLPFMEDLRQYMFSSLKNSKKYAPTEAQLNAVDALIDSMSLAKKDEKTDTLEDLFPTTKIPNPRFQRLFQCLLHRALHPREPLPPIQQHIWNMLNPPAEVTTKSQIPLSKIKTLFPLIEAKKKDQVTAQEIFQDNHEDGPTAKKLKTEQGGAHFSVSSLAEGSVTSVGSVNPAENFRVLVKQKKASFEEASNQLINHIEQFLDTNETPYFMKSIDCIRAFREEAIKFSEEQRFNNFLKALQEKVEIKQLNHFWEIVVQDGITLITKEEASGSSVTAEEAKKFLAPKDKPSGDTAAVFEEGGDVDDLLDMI
UniProt Q15233: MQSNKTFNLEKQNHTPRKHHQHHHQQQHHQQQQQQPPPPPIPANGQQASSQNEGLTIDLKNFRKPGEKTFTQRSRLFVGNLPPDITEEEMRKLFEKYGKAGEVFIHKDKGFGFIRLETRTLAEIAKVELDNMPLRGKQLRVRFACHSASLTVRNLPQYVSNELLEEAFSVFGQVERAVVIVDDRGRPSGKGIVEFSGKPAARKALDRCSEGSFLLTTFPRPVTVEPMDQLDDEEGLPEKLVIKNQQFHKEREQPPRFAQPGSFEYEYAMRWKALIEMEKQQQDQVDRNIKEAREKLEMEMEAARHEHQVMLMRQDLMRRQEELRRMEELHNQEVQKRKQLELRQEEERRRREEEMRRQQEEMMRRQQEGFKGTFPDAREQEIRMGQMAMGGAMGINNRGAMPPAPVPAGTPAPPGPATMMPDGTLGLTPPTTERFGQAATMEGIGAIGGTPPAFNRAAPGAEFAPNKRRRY
UniProt P23246: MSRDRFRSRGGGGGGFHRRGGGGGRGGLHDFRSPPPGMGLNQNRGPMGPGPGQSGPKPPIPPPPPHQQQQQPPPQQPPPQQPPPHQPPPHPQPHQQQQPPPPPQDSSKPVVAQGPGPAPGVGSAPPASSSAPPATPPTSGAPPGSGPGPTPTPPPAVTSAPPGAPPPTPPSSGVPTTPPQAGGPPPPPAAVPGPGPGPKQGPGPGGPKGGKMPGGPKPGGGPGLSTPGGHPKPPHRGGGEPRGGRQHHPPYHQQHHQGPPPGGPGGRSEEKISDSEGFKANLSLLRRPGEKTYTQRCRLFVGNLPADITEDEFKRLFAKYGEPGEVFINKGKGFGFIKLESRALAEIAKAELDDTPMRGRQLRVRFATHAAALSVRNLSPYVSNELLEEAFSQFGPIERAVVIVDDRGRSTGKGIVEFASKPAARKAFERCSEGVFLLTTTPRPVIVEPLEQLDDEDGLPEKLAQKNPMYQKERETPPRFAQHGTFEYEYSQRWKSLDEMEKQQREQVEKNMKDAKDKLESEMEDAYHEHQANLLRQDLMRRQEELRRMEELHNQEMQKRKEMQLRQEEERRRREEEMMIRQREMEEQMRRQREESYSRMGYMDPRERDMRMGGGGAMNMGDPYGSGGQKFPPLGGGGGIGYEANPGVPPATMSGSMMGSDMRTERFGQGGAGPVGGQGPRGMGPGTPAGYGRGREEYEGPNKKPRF
UniProt Q96CX2, 2-325: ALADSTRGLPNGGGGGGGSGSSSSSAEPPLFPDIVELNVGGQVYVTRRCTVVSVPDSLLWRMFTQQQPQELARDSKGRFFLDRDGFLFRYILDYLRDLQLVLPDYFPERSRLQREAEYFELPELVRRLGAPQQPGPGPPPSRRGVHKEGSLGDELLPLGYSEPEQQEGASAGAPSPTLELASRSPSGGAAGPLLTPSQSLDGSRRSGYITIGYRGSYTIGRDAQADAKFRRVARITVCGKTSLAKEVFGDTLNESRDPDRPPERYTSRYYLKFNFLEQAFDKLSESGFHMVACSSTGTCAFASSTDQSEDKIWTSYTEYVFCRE
UniProt P05455: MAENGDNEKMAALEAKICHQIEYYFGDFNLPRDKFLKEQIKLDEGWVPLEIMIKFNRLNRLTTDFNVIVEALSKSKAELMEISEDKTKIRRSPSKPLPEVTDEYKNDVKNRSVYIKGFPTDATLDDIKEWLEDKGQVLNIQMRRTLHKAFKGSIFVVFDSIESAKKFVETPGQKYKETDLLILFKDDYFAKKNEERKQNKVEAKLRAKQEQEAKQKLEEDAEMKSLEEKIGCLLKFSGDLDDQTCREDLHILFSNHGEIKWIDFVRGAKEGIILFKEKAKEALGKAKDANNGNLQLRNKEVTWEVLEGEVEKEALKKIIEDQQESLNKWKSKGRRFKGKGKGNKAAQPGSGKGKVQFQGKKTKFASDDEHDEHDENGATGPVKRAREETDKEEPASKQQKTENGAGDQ

What was measured:
Assay in all cases: pull-down
ATAD3A (Homo sapiens) = molecular target: T1, ATAD3A (Homo sapiens) (UniProt Q9NVI7); details: full PS, protein in an extract, protein details: HeLa cell extract
T1 sequence (looked up, limits assumed): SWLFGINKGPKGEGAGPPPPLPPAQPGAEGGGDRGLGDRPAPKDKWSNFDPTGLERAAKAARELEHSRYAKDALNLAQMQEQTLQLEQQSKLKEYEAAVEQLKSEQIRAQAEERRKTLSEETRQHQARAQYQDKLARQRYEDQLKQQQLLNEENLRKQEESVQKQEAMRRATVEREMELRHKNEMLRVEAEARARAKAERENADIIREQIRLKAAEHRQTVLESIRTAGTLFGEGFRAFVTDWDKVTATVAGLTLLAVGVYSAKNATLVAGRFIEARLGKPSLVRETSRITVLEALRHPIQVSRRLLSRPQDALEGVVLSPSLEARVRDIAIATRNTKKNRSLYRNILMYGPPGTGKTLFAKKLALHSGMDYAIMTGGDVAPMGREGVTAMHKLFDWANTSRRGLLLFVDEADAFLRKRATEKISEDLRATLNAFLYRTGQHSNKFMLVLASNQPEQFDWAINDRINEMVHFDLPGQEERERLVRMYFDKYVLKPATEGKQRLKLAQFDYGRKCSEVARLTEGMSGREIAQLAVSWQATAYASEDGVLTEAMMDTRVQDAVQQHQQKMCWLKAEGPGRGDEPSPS

Ku70 (Homo sapiens) = Ku70 (Homo sapiens) (UniProt P12956); details: full PS, protein in an extract, protein details: HeLa cell extract
Ku80 (Homo sapiens) = Ku80 (Homo sapiens) (UniProt P13010); details: full PS, protein in an extract, protein details: HeLa cell extract
P54nrb (Homo sapiens) = P54nrb (Homo sapiens) (UniProt Q15233); details: full PS, protein in an extract, protein details: HeLa cell extract
[1] = molecular target: PC4 (SUB1) (Homo sapiens) (UniProt P53999); details: full PS, protein in an extract, protein details: HeLa cell extract
PSF (Homo sapiens) = PSF (Homo sapiens) (UniProt P23246); details: full PS, protein in an extract, protein details: HeLa cell extract
RNaseH1 (Homo sapiens) = molecular target: T2, RNaseH1 (Homo sapiens) (UniProt O60930); details: full PS, protein in an extract, protein details: HeLa cell extract
T2 sequence (looked up, limits assumed): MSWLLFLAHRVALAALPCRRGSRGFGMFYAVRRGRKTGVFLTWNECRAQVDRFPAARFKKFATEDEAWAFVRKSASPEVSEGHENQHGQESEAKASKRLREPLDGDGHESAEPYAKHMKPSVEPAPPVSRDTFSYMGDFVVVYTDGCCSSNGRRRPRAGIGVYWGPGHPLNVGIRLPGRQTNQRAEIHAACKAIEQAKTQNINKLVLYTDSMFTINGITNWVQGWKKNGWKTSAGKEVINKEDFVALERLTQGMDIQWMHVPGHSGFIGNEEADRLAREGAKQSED

TCP1-beta (Homo sapiens) = molecular target: T3, TCP1-beta (Homo sapiens) (UniProt P78371); details: full PS, protein in an extract, protein details: HeLa cell extract
T3 sequence (looked up, limits assumed): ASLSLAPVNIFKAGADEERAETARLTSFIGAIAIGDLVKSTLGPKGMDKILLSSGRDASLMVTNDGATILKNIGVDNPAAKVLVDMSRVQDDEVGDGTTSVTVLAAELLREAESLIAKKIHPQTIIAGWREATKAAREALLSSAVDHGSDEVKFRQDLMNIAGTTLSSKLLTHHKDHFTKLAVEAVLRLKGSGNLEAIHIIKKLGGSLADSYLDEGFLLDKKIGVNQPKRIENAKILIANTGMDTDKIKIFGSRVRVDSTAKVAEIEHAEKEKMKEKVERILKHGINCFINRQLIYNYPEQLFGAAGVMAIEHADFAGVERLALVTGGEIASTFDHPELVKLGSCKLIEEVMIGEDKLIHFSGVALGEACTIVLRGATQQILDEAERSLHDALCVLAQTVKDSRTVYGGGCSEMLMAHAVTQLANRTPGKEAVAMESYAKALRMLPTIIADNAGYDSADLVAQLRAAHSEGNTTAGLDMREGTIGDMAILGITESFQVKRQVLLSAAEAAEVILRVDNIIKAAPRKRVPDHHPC

VARS (Homo sapiens) = molecular target: T4, VARS (Homo sapiens) (UniProt P26640); details: full PS, protein in an extract, protein details: HeLa cell extract
T4 sequence (looked up, limits assumed): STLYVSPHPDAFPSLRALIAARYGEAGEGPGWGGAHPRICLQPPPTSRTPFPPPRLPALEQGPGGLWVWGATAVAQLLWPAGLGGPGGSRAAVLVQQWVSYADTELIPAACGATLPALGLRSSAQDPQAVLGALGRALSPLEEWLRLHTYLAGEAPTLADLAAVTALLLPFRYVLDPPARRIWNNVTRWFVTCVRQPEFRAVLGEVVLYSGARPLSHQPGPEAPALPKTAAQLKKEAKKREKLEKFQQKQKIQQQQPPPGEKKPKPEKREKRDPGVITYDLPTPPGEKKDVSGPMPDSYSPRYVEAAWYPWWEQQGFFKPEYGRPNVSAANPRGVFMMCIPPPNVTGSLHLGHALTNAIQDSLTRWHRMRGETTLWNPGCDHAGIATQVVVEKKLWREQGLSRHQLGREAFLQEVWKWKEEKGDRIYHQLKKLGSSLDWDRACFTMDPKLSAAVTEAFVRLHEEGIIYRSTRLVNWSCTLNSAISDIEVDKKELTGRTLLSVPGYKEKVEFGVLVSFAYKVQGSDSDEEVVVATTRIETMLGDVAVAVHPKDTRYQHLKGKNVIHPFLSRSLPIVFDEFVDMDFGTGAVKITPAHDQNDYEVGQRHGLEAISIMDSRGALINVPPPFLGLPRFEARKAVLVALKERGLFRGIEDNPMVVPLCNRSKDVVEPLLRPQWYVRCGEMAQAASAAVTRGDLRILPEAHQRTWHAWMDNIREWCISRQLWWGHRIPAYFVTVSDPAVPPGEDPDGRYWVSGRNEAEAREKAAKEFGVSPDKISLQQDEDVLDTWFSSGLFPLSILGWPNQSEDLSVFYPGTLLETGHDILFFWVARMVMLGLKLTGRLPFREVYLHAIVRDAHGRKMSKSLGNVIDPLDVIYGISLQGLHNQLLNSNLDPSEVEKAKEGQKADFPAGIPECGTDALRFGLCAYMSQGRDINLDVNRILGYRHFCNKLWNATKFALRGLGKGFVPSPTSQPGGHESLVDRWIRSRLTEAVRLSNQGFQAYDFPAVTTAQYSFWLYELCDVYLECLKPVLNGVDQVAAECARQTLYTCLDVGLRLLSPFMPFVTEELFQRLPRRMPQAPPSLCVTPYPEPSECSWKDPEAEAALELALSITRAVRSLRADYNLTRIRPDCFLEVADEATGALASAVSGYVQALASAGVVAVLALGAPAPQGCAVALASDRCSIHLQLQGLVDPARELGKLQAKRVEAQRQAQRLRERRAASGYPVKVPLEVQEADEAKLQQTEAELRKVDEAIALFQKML

ANXA2 (Homo sapiens) = ANXA2 (Homo sapiens) (UniProt P07355); details: 5-10-5 gapmer, 2'-MOE wings 1-5 and 16-20, 2'-deoxy gap, all C 5mC, full PS; specific PS-ASO association, western confirmed; protein in an extract; protein details: HeLa cell extract; label: 5' biotin-TEG (386652), none (116847); synthetic backbone
KCTD12 (Homo sapiens) = KCTD12 (Homo sapiens) (UniProt Q96CX2); details: 5-10-5 gapmer, 2'-MOE wings 1-5 and 16-20, 2'-deoxy gap, all C 5mC, full PS; specific PS-ASO association, western confirmed; protein in an extract; protein details: HeLa cell extract; label: 5' biotin-TEG (386652), none (116847); synthetic backbone
La (SSB) (Homo sapiens) = La (SSB) (Homo sapiens) (UniProt P05455); details: 5-10-5 gapmer, 2'-MOE wings 1-5 and 16-20, 2'-deoxy gap, all C 5mC, full PS; specific PS-ASO association, western confirmed; protein in an extract; protein details: HeLa cell extract; label: 5' biotin-TEG (386652), none (116847); synthetic backbone
NCL1 (Homo sapiens) = NCL1 (Homo sapiens) (UniProt P19338); details: 5-10-5 gapmer, 2'-MOE wings 1-5 and 16-20, 2'-deoxy gap, all C 5mC, full PS; specific PS-ASO association, western confirmed; protein in an extract; protein details: HeLa cell extract; label: 5' biotin-TEG (386652), none (116847); synthetic backbone
NPM1 (Homo sapiens) = NPM1 (Homo sapiens) (UniProt P06748); details: 5-10-5 gapmer, 2'-MOE wings 1-5 and 16-20, 2'-deoxy gap, all C 5mC, full PS; specific PS-ASO association, western confirmed; protein in an extract; protein details: HeLa cell extract; label: 5' biotin-TEG (386652), none (116847); synthetic backbone
PSPC1 (Homo sapiens) = molecular target: T5, PSPC1 (Homo sapiens) (UniProt Q8WXF1); details: 5-10-5 gapmer, 2'-MOE wings 1-5 and 16-20, 2'-deoxy gap, all C 5mC, full PS; specific PS-ASO association, western confirmed; protein in an extract; protein details: HeLa cell extract; label: 5' biotin-TEG (386652), none (116847); synthetic backbone
T5 sequence (looked up, limits assumed): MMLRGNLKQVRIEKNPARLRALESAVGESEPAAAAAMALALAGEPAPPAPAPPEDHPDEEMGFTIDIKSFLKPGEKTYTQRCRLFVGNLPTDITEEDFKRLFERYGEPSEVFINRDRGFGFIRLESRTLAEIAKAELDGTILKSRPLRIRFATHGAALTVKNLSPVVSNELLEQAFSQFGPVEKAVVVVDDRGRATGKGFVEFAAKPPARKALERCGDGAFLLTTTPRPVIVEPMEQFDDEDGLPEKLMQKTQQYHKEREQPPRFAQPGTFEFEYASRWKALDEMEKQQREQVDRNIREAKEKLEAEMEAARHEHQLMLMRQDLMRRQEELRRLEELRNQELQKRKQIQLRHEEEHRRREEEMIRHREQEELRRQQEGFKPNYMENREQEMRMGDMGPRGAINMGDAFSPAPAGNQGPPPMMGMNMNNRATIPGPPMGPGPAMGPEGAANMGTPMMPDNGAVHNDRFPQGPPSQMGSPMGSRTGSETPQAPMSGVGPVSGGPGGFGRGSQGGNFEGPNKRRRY

[2] = molecular target: TCP1-alpha (Homo sapiens) (UniProt P17987); details: 5-10-5 gapmer, 2'-MOE wings 1-5 and 16-20, 2'-deoxy gap, all C 5mC, full PS; specific PS-ASO association, western confirmed; protein in an extract; protein details: HeLa cell extract; label: 5' biotin-TEG (386652), none (116847); synthetic backbone
[3] = molecular target: TCP1-epsilon (Homo sapiens) (UniProt P48643); details: 5-10-5 gapmer, 2'-MOE wings 1-5 and 16-20, 2'-deoxy gap, all C 5mC, full PS; specific PS-ASO association, western confirmed; protein in an extract; protein details: HeLa cell extract; label: 5' biotin-TEG (386652), none (116847); synthetic backbone
hnRNPK (Homo sapiens) = hnRNPK (Homo sapiens) (UniProt P61978); details: 5-10-5 gapmer, 2'-MOE wings 1-5 and 16-20, 2'-deoxy gap, all C 5mC, full PS; specific PS-ASO association, western confirmed; protein in an extract; protein details: HeLa cell extract; label: 5' biotin-TEG (386652), none (116847); synthetic backbone
[4] = strand 1 5-10-5 MOE gapmer, 5mC, strand 2 first 7 nt RNA, rest 2'-OMe, PO, sample 2, duplex, label: 5' biotin on XL180
[5] = 5-10-5 gapmer, 2'-MOE wings 1-5 and 16-20, 2'-deoxy gap, all C 5mC, samples 1 and 2, label: 5' biotin-TEG (386652), none (116847), synthetic backbone

Measured: binding result

CTGCTAGCCTCTGGATTTGA / AGCAGUUCUCAAAUCCAGAGGCUAGCAG [Isis 116847 / XL180 duplex]
binds: ATAD3A (Homo sapiens); [4] | Ku70 (Homo sapiens); [4] | Ku80 (Homo sapiens); strand 1 5-10-5 MOE gapmer, 5mC, strand 2 first 7 nt RNA, rest 2'-OMe, PO, sample 2, duplex, RNase I elution, label: 5' biotin on XL180 | P54nrb (Homo sapiens); [4] | [1]; [4] | PSF (Homo sapiens); [4] | RNaseH1 (Homo sapiens); [4] | TCP1-beta (Homo sapiens); [4] | VARS (Homo sapiens); [4]

CTGCTAGCCTCTGGATTTGA [Isis 386652 / 116847 (PS/MOE)]
binds: ANXA2 (Homo sapiens) | ATAD3A (Homo sapiens); [5] | KCTD12 (Homo sapiens) | Ku70 (Homo sapiens); [5] | Ku80 (Homo sapiens); 5-10-5 gapmer, 2'-MOE wings 1-5 and 16-20, 2'-deoxy gap, all C 5mC, samples 1 and 2, capture ASO 451104 or 386652, eluted by 116847, label: 5' biotin-TEG (386652), none (116847), synthetic backbone | La (SSB) (Homo sapiens) | NCL1 (Homo sapiens) | NPM1 (Homo sapiens) | P54nrb (Homo sapiens); [5] | [1]; [5] | PSF (Homo sapiens); [5] | PSPC1 (Homo sapiens) | RNaseH1 (Homo sapiens); [5] | [2] | TCP1-beta (Homo sapiens); [5] | [3] | VARS (Homo sapiens); [5] | hnRNPK (Homo sapiens)
